The text below walks through data of PMC7430664, “Yeast pentatricopeptide protein Dmr1 (Ccm1) binds a repetitive AU-rich motif in the small subunit mitochondrial ribosomal RNA”.

The target in this data set is T1, Dmr1p (Ccm1p), tag removed (Saccharomyces cerevisiae) (UniProt P48237).
T1 sequence (looked up, limits assumed): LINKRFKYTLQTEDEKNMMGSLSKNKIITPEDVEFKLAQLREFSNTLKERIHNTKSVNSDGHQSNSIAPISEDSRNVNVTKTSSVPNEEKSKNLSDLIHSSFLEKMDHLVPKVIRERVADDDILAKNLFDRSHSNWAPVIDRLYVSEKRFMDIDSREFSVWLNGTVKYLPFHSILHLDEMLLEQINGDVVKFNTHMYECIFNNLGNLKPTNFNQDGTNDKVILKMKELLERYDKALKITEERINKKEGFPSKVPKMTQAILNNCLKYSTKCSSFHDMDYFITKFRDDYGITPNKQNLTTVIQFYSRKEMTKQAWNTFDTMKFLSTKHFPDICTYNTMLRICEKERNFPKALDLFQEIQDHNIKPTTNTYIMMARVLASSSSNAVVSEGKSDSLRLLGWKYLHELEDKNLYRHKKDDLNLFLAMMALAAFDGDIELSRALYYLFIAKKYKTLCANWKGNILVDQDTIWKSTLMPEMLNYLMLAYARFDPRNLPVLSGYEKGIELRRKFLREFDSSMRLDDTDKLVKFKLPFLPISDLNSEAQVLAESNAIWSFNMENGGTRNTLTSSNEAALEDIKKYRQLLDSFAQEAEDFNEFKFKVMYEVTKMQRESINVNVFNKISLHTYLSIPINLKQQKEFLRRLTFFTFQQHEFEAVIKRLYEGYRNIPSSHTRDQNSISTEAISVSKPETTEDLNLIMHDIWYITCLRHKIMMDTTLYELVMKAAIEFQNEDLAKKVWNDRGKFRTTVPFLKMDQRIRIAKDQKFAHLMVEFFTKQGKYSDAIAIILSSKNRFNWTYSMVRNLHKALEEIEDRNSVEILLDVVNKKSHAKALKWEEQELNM
Put plainly: EMSA. The settings on record: 0.2 ug tRNA, marginal at highest protein, EMSA as in Puchta et al. 2010 (buffer not restated), 15 uL, up to 0.8 ug Dmr1p, BSA to constant protein, recombinant protein, label: 32P-UTP, letters put together from the description. On the technique in general: Mobility shift assays separate free from complexed probe on a gel.

The exact form of at least one protein or probe is not confirmed. The comparison behind a weaker result is the experiment's own reference, which may not be listed here. Tags and fusion partners may be left off the protein sequences shown.

As to GGAUAAUAUGGGUAAU [7_14], the binding result was “binds more weakly”.
